# Laboratory results taken from US8076285B2 (Aicuris GmbH & Co. KG, priority 2006, dated 2011).
# Assay: general procedure: Fmoc solid-phase peptide synthesis; 2-chlorotrityl chloride resin (Iris Biotech), 0.85 mmol/g; TBTU/DIEA
# Conditions: trifluoroacetate; for cyclisation yield: cyclisation step
substance,measurement,setting,value
[(3R)-3-Amino-L-phenylalanyl]-[(3R)-3-hydroxy-L-leucyl]-L-leucyl-D-arginyl-L-isoleucyl-L-leucyl-glycyl-L-seryl-L-serine C^1.9-N^3.1-lactam bishydrochloride,step yield,"late stage modification step, of theory from 401A",97% of theory
same,purity (crude or final not stated),late stage modification step,84% pure
[N^2-(tert.-Butoxycarbonyl)-3-tert-butyl-D-alanyl]-[3-tert-butyl-L-alanyl]-[(3R)-3-amino-3-(pyridin-3-yl)-L-alanyl]-[(3R)-3-hydroxy-L-leucyl]-L-leucyl-D-arginyl-L-isoleucyl-L-allothreonyl-glycyl-[(3R)-3-hydroxy-L-asparaginyl]-L-serine,step yield,coupling step,60% of theory
[(3R)-N^2-(Benzyloxycarbonyl)-3-{(tert-butoxycarbonyl)amino}-L-phenylalanyl]-[(3R)-3-hydroxy-L-leucyl]-[3-tertbutyl-L-alanyl]-D-arginyl-L-isoleucyl-L-allothreonyl-glycyl-L-seryl-L-serine trifluoroacetate,step yield,coupling step,74% of theory
[(3R)-3-Hydroxy-L-leucyl]-L-leucyl-D-arginyl-L-isoleucyl-L-leucyl-glycyl-L-seryl-L-serine bistrifluoroacetate,final purity (method not given),late stage modification step,36% pure
[3-tert-Butyl-D-alanyl]-[3-tert-butyl-L-alanyl]-[(3R)-3-amino-L-phenylalanyl]-[(3R)-3-hydroxy-L-leucyl]-L-leucyl-D-arginyl-L-isoleucyl-L-allothreonyl-glycyl-L-alanyl-L-serine C^1.11-N^3.3-lactam bistrifluoroacetate,step yield,late stage modification step,20% of theory
[(3R)-N^2-(Benzyloxycarbonyl)-3-amino-L-phenylalanyl]-[(3R)-3-hydroxy-L-leucyl]-L-leucyl-D-arginyl-L-isoleucyl-L-allothreonyl-D-seryl-L-seryl-L-serine C^1.9-N^3.1-lactam trifluoroacetate,cyclisation yield,from 373A,93% of theory
[(3R)-3-Hydroxy-L-leucyl]-L-leucyl-D-arginyl-L isoleucyl-L-allothreonyl-glycyl-[(2S)-2-amino-4-benzyloxycarbonylaminobutyryl]-L-serine bistrifluoroacetate,final purity (method not given),late stage modification step,67% pure
[(3R)-N^2-(Benzyloxycarbonyl)-3-amino-L-phenylalanyl]-[(3R)-3-hydroxy-L-leucyl]-L-leucyl-D-arginyl-L-isoleucyl-L-leucyl-glycyl-L-seryl-L-serine C^1.9-N^3.1-lactam trifluoroacetate,cyclisation yield,from 377A,97% of theory
[(3R)-3-Amino-L-phenylalanyl]-[(3R)-3-hydroxy-L-leucyl]-L-norvalyl-D-arginyl-L-isoleucyl-L-allothreonyl-glycyl-L-seryl-L-serine C^1.9-N^3.1-lactam bistrifluoroacetate,step yield,"late stage modification step, of theory from 395A",68% of theory
[(3R)-N^2-(Benzyloxycarbonyl)-3-{(tert-butoxycarbonyl)amino}-L-phenylalanyl]-[(3R)-3-hydroxy-L-leucyl]-L-leucyl-D-arginyl-L-phenylalanlyl-L-allothreonyl-glycyl-L-seryl-L-serine trifluoroacetate,step yield,coupling step,49% of theory
[(3R)-3-Amino-L-phenylalanyl]-[(3R)-3-hydroxy-L-leucyl]-L-leucyl-D-arginyl-L-phenylalanlyl-L-allothreonyl-glycyl-L-seryl-L-serine C^1.9-N^3.1-lactam bistrifluoroacetate,step yield,"late stage modification step, of theory from 392A",77% of theory
same,purity (crude or final not stated),late stage modification step,71% pure
{(3R)-3-Amino-L-phenylalanyl}-[(3R)-3-hydroxy-L-leucyl]-L-leucyl-(N^5-benzyloxycarbonyl-D-ornithyl)-L-isoleucyl-L-allothreonyl-glycyl-L-seryl-L-serine C^1.9-N^3.1-lactam,step yield,"late stage modification step, of theory from 400A",71% of theory
same,purity (crude or final not stated),late stage modification step,80% pure
[(3R)-3-Amino-L-phenylalanyl]-[(3R)-3-hydroxy-L-leucyl]-L-leucyl-D-arginyl-L-isoleucyl-L-allothreonyl-glycyl-[(3S)-3-hydroxy-L-asparaginyl]-L-serine C^1.9-N^3.1-lactam bishydrochloride,step yield,late stage modification step,95% of theory
[3-tert-Butyl-D-alanyl]-[3-tert-butyl-L-alanyl]-[(3R)-3-amino-L-phenylalanyl]-[(3R)-3-hydroxy-L-leucyl]-L-leucyl-D-arginyl-L-isoleucyl-L-allothreonyl-glycyl-[L-threonyl]-L-serine C^1.11-N^3.2-lactam bistrifluoroacetate,step yield,late stage modification step,27% of theory
Benzyl [(3R)-N^2-(tert-butoxycarbonyl)-3-hydroxy-L-leucyl]-L-leucyl-D-arginyl-L-isoleucyl-L-allothreonyl-glycyl-L-asparaginyl-L-serinate trifluoroacetate,step yield,coupling step,31% of theory
[(3R)-3-Hydroxy-L-leucyl]-L-leucyl-D-arginyl-L-isoleucyl-L-allothreonyl-glycyl-glycyl-L-serine bistrifluoroacetate,final purity (method not given),late stage modification step,60% pure
[(3R)-3-Amino-3-(pyridin-3-yl)-L-alanyl]-[(3R)-3-hydroxy-L-leucyl]-L-leucyl-D-arginyl-L-isoleucyl-L-allothreonyl-glycyl-[(3R)-3-hydroxy-L-asparaginyl]-L-C^1.9-N^3.1-lactam tristrifluoroacetate,step yield,late stage modification step,96% of theory
[(3R)-N^2-(Benzyloxycarbonyl)-3-{(tert-butoxycarbonyl)amino}-L-phenylalanyl]-L-threonyl-L-leucyl-D-arginyl-l-isoleucyl-L-allothreonyl-glycyl-L-seryl-L-serine trifluoroacetate,step yield,coupling step,64% of theory
[(3R)-N^2-(Benzyloxycarbonyl)-3-{(tert-butoxycarbonyl)amino}-L-phenylalanyl]-[(3R)-3-hydroxy-L-leucyl]-L-leucyl-D-arginyl-L-isoleucyl-L-leucyl-glycyl-L-seryl-L-serine trifluoroacetate,step yield,coupling step,14% of theory
[(3R)-N^2-(Benzyloxycarbonyl)-3-{(tert-butoxycarbonyl)amino}-L-phenylalanyl]-[(3R)-3-hydroxy-L-leucyl]-L-leucyl-D-arginyl-L-isoleucyl-L-allothreonyl-glycyl-L-threonyl-L-serine trifluoroacetate,step yield,coupling step,76% of theory
[(3R)-3-Amino-L-phenylalanyl]-[(3R)-3-hydroxy-L-leucyl]-L-isoleucyl-D-arginyl-L-isoleucyl-L-allothreonyl-glycyl-L-seryl-L-serine C^1.9-N^3.1-lactam bishydrochloride,step yield,"late stage modification step, of theory from 399A",93% of theory
same,purity (crude or final not stated),late stage modification step,93% pure
[(3R)-N^2-(Benzyloxycarbonyl)-3-amino-L-phenylalanyl]-[(3R)-3-hydroxy-L-leucyl]-L-leucyl-D-arginyl-L-valyl-L-allothreonyl-glycyl-L-seryl-L-serine bistrifluoroacetate,crude purity (method not given),late stage modification step,70% pure
[3-tert-Butyl-D-alanyl]-[3-tert-butyl-L-alanyl]-[(3R)-3-amino-L-phenylalanyl]-[(3R)-3-hydroxy-L-leucyl]-L-leucyl-D-arginyl-L-isoleucyl-L-allothreonyl-glycyl-L-phenyalanyl-L-serine C^1.11-N^3.3-lactam bistrifluoroacetate,step yield,late stage modification step,50% of theory
[(3R)-N^2-(Benzyloxycarbonyl)-3-amino-L-phenylalanyl]-[(3R)-3-hydroxy-L-leucyl]-L-leucyl-D-arginyl-L-leucyl-L-allothreonyl-glycyl-L-seryl-L-serine bistrifluoroacetate,crude purity (method not given),late stage modification step,70% pure
{(3R)-N^2-[(Benzyloxy)carbonyl]-3-amino-L-phenylalanyl}-[(3R)-3-hydroxy-L-leucyl]-L-leucyl-D-arginyl-L-isoleucyl-L-allothreonyl-glycyl-[(3S)-3-hydroxy-L-asparaginyl]-L-serine trifluoroacetate,step yield,late stage modification step,87.1% of theory
[3-tert-Butyl-D-alanyl]-[3-tert-butyl-L-alanyl]-[(3R)-3-amino-L-phenylalanyl]-[(3R)-3-hydroxy-L-leucyl]-L-leucyl-D-arginyl-L-leucyl-L-allothreonyl-glycyl-L-seryl-L-serine C^1.11-N^3.3-lactam,step yield,"late stage modification step, from compound 438A",11% of theory
[(3R)-N^2-(Benzyloxycarbonyl)-3-{(tert-butoxycarbonyl)amino}-L-phenylalanyl]-[(3R)-3-hydroxy-L-leucyl]-L-leucyl-D-arginyl-L-isoleucyl-L-allothreonyl-glycyl-[3-(3-pyridyl)-L-alanyl]-L-serine trifluoroacetate,step yield,coupling step,73% of theory
[(3R)-N^2-(Benzyloxycarbonyl)-3-amino-L-phenylalanyl]-[(3R)-3-hydroxy-L-leucyl]-L-leucyl-D-arginyl-L-isoleucyl-L-allothreonyl-glycyl-[(2S)-2-amino-3-(9H-fluoren-9-ylmethoxycarbonyl)aminobutyryl]-L-serine C^1.9-N^3.1-lactam trifluoroacetate,cyclisation yield,from 359A,67% of theory
[(3R)-N^2-(Benzyloxycarbonyl)-3-amino-L-phenylalanyl]-L-threonyl-L-leucyl-D-arginyl-L-isoleucyl-L-allothreonyl-glycyl-L-seryl C^1.9-N^3.1-lactam trifluoroacetate,cyclisation yield,from 360A,73% of theory
{(3R)-3-Amino-L-phenylalanyl}-[(3R)-3-hydroxy-L-leucyl]-L-leucyl-[(2R)-2-amino-4-benzyloxycarbonylaminobutyryl]-L-isoleucyl-L-allothreonyl-glycyl-L-seryl-L-serine C^1.9-N^3.1-lactam,step yield,"late stage modification step, of theory from 402A",62% of theory
same,purity (crude or final not stated),late stage modification step,60% pure
[(3R)-3-Amino-L-phenylalanyl]-[(3R)-3-hydroxy-L-leucyl]-(3-trimethylsilyl-L-alanyl)-D-arginyl-L-isoleucyl-L-allothreonyl-glycyl-L-seryl-L-serine C^1.9-N^3.1-lactam bishydrochloride,step yield,"late stage modification step, of theory from 386A",90% of theory
